Patent publication US20240226232A9, “PROTEIN-BASED THERAPIES FOR OCULAR CONDITIONS” (The Regents of the University of Colorado, A Body Corporate, priority 2021, published 2024)
Some of these results come from one statement about several compounds together. Not every detail of the peptide structures is certain; ends, links or a residue may be inferred.

Test system: RGCs
Experiment: Silicone oil mouse model of ocular hypertension, Brn3a-positive RGC count after intravitreal peptide
Format: in vivo, mice
Settings: single 1 μg intravitreal dose two days after oil removal, control almost 3,400, vehicle about 2,000
Excerpt: The second ocular hypertension model was generated by anesthetizing mice via intraperitoneal injection of ketamine/xylazine supplemented with topical application of 0.5% proparacaine hydrochloride. A 33G needle was tunneled through the cornea of each tested eye at the superotemporal side close to the limbus to reach the anterior chamber without injuring the lens or iris. […] After the injection, the upper eyelid was gently massaged to close the corneal incision and minimize oil leakage, and veterinary antibiotic ointment was applied to the surface of the injected eye to prevent infection.
After two weeks, the silicone oil droplet was removed. […] Veterinary antibiotic ointment was applied to the surface of the eye after oil removal.
The intraocular pressure of each eye was monitored once weekly until four weeks after silicone oil injection using a tonometer under anesthesia with a sustained flow of isoflurane (5% isoflurane at 2 L/minute mixed with oxygen). Two weeks after oil removal (day 28), retinas were removed and immunostained with Brn3a and βIII-tubulin antibodies to visualize and count the surviving RGCs.

DRFSVNLDVKHFSPEELKVKV [peptain-1]
RGCs per mm^2 two weeks after silicone oil removal (2+2 wk): under 2,900 RGCs per mm^2
